# Data taken from US20090018101.
# For at least one entry, the source does not settle the construct or the ends of the probe.
# Test system: M.BcnIB (DNA cytosine-N4 methyltransferase)
# Test: activity assay
# Details: N4-dC group transfer by HPLC/ESI-MS with cofactors 3 and 5, not 4 or 6; 37 C, EDTA; purified recombinant protein
sequence,measurement,value
CATTACGCGCCGGGTCCTGGCTAT (double strand) [duplex III.IV (= V.VI)],activity on this sequence,active
